These are yes or no findings as the source states them, for the method shown. Binding seen in cells or lysates may run through a third protein. Some binding calls cover weakened binding; strength is not graded here. For some assays here: Sequences can lack the tags named with a protein.
What was measured:
[1] = biological target: T1, SENP1 (Sentrin-specific protease 1), endogenous in gastric cancer cells (human (endogenous in MKN-45 and HGC-27)) (UniProt Q9P0U3); assay: co-IP; endogenous proteins in MKN-45 and HGC-27 lysates (RIPA buffer with PMSF); antibody overnight, Protein A/G PLUS-Agarose, immunoblot
T1 sequence: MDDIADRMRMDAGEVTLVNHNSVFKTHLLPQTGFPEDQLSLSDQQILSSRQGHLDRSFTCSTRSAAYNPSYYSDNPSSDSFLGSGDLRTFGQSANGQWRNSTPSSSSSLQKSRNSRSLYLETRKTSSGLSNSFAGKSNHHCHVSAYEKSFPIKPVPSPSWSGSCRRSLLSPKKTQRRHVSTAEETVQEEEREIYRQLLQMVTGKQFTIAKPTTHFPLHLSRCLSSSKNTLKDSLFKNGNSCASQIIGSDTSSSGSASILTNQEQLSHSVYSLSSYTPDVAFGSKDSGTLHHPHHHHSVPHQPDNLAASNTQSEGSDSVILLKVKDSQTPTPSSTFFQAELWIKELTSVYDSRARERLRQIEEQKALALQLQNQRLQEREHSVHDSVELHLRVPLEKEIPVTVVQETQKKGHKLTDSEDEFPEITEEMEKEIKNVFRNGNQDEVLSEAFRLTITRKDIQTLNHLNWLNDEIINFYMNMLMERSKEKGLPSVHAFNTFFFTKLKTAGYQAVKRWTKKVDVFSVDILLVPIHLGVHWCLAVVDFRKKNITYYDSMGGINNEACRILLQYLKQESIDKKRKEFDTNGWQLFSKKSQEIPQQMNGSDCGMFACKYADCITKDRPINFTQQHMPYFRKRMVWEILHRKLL

Chains of the proteins cited; added tags and fusions are not shown.
UniProt P06733: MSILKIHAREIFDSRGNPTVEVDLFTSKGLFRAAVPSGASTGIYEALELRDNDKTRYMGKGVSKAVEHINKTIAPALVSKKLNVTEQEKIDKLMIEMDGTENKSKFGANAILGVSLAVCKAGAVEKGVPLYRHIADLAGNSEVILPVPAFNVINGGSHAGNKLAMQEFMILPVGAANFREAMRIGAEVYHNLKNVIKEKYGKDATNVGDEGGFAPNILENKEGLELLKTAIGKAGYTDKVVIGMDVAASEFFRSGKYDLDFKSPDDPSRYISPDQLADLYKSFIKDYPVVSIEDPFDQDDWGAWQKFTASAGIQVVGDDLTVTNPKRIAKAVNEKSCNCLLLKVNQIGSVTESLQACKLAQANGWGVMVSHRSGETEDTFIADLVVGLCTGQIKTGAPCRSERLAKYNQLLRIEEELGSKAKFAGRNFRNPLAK

Flag-SENP1 = biological target: T2, Flag-SENP1 (UniProt Q9P0U3); assay: co-IP; HEK293T cells transfected with Flag-SENP1 and HA-ENO1; lysate, antibody overnight, Protein A/G PLUS-Agarose, immunoblot
T2 sequence: T1 sequence

Row | binding [1] | binding (Flag-SENP1) | Substance
1 | binds | – | α-enolase (ENO1), endogenous in gastric cancer cells (from UniProt P06733 1-434) (enzyme)
2 | – | binds | HA-ENO1 (from UniProt P06733 1-434) (enzyme)
